These are yes or no findings as the source states them, for the method shown. Binding seen in cells or lysates may run through a third protein. For some assays here: Binding can be weak; no strength is given.

Assay [1] has as its target NFPC (Xenopus laevis (endogenous in cultured retinal explants)). Nature of the assay: proximity ligation; Duolink in situ PLA on fixed, permeabilised cultured retinal explants (RGC growth cones) from Xenopus embryos; pairs of mouse and rabbit primary antibodies; positive signal only when the two antibodies are within 40 nm.
In assay [2] the target is CoxIV, a cytochrome c oxidase subunit localized to the inner mitochondrial membrane (Xenopus laevis (endogenous in cultured retinal explants)). The description is as above.

B1: lamin B2 (protein, UniProt P21910 1-623)
chain: MATTTPSRSTRSSMQSPARGTSTPLSPTRISRLQEKEELRHLNDRLAVYIDRVRALELENDRLMVKISEKEEVTTREVSGIKNLYESELADARKVLDETARERARLQIELGKFRSDLDELNKNYKKKDADLSTAQGRIKDLEALFHRSEAELGTALGEKRSLEAEVADLRAQLSKTEDAHRVAKKQLEKETLMRVDFENRMQSLQEEMDFRKNIYEEESRETRKRHERRIVEVDRGHHYDYESKLAQALDELRKQHDEQVKMYKEELEQTYQAKLDNIKRSSDHNDKAANTALEELTERRMRIETLGYQLSGLQKQANAAEERIRELEELLSSDRDKYRKLLDSKEREMAEMRDQMQQQLNEYQELLDVKLALDLEINAYRKLLEGEEERLKLSPSPESRVTVSRATSSSSSATRTSRSKRRRVEEEYEEGGASTGFGAGHSLGSSRITASEGSSRTITSGQSSTTRFHLSQQASATGSISIEEIDLEGKYVHLKNNSDKDQSLGNWRLKRKIGEEEEIVYKFTPKYVLKAGQSVKIYSADAGVAHSPPSILVWKNQSSWGTGSNIRTYLVNTEEEEVAVRTVTKSVLRNVEEEEDEDADFGEEDLFHQQGDPRTTSRGCSVM
With B1, the binding entry in assay [1] was “no binding”; in assay [2], “binds”.

Values taken from publication PMC3314965.
